Measurements as given in PubChem BioAssay AID493014 (National Center for Advancing Translational Sciences (NCATS), 2011).
Some of the results follow. Further columns of the screen follow, without active or inactive calls. Compounds called inactive in the main read-out are mostly missing here. Potencies come from curve fits of mixed quality, noted in brackets.

Test: qHTS Assay to Find Inhibitors of Chronic Active B-Cell Receptor Signaling
Settings: ABC-DLBCL IkBa-CBG/CBR reporter, luminescence ratio (green luciferase fused to IkBa over red control in TMD8 lymphoma cells), 4 h
Method in brief: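 Cell line TMD8 (human ABC DLBCL), stably expressing tet-inducible CBG68-IkBa fusion and CBR; IMDM/0.5% FBS; cpd up to 46 uM; dox induction, 4 h, 37C/5% CO2; dual luminescence; green/red ratio; MG132 control.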

[1] = measured here: CBR red luminescence, cell number
[2] = measured here: IkBa-CBG green luminescence

SMILES: Cc1cccn2c(=O)c(/C=C(\C#N)S(=O)(=O)c3ccc(Cl)cc3)c(N3CCC(C(N)=O)CC3)nc12
- AC50 [1]: 0.103 µM [falling, full curve, poor fit]

SMILES: C=CCSC1=N/C(=C\c2ccc3c(c2)OCO3)C(=O)S1
- AC50 [1]: 8.91 µM [rising, partial curve, poor fit]

SMILES: CCOC(=O)CSC1=NC(=O)/C(=C\c2ccc(Cl)cc2)S1
- AC50 [1]: 22.4 µM [falling, single point]

SMILES: Cc1cc(Cl)ccc1OCC(=O)Nc1ccccc1CO
- AC50 [1]: 0.58 µM [rising, partial curve, poor fit]

SMILES: OCC1(CO)COC(c2ccccc2)=N1
- AC50 [1]: 1.78 µM [rising, partial curve, poor fit]

SMILES: COc1ccc(C)cc1Nc1n[n+](C)c(-c2ccc(C(=O)O)cc2)s1
- AC50 [1]: 0.398 µM [falling, full curve, poor fit]

SMILES: CCNC(=S)N/N=C1\CCCCc2ccccc21
- AC50 [2]: 18.4 µM [falling, single point]

SMILES: Cc1ccc(C(=O)NC(c2ccccc2)C(Cl)Cl)cc1 (configuration not stated)
- AC50 [1]: 14.6 µM [falling, partial curve]

SMILES: COc1ccc(C(=O)NC(=S)Nc2ccc3c(c2)Cc2ccccc2-3)cc1
- AC50 [1]: 10.3 µM [rising, partial curve, poor fit]

SMILES: CCS(=O)(=O)Nc1cccc(C2=NN(C(=O)c3ccco3)C(c3ccco3)C2)c1 (configuration not stated)
- AC50 [1]: 5.01 µM [falling, partial curve]

SMILES: CCCNC(=O)Cc1c(C)oc2ccccc12
- AC50 [1]: 5.62 µM [rising, full curve, poor fit]

SMILES: CC(C)CC(=O)NC(=S)Nc1ccc(NC(=O)c2cccs2)cc1
- AC50 [1]: 29.1 µM [rising, single point]

SMILES: CN(C)C(=O)CCc1ccc2c3c([nH]c2c1)[C@]1(C)[C@@H](C(=O)N2CCOCC2)C[C@H](CC(=O)NCc2ccco2)C(=O)N1CC3
- AC50 [1]: 20.6 µM [rising, partial curve, poor fit]

SMILES: O=C(Nc1ccc(Cl)cc1)N(Cc1nc2ccccc2c(=O)[nH]1)Cc1cccs1
- AC50 [1]: 29.1 µM [falling, single point]
- AC50 [2]: 29.1 µM [rising, partial curve, poor fit]

SMILES: CCOC(=O)c1c(-c2ccccc2Cl)cn2ccccc12
- AC50 [1]: 0.58 µM [rising, partial curve, poor fit]

SMILES: Cc1cc(C)nc(NS(=O)(=O)c2ccc(NC(=O)COc3ccccc3)cc2)n1
- AC50 [1]: 11.2 µM [falling, single point]

SMILES: CCc1cccc(NC(=O)CN(C)S(=O)(=O)c2cnc[nH]2)c1
- AC50 [1]: 22.4 µM [falling, single point]

SMILES: CCOc1ccc(CN2CCN(Cc3cccc4nonc34)CC2CCO)cc1 (configuration not stated)
- AC50 [1]: 35.5 µM [rising, single point]

SMILES: COc1ccc(F)cc1C(=O)C1CCCN(Cc2cnc(N3CCCC3)s2)C1 (configuration not stated)
- AC50 [1]: 20 µM [falling, single point]

SMILES: CC(C(=O)NCC1CCCO1)N1C(=O)C2C3CC(C(Br)C3Br)C2C1=O (configuration not stated)
- AC50 [1]: 5.62 µM [rising, single point]

SMILES: CCn1c(/C=C/N(C)c2ccccc2)[n+](CC)c2ccc(Cl)cc21
- AC50 [1]: 14.6 µM [falling, single point]

SMILES: Cc1cccc(-c2noc(CCCOc3ccc(Cl)cc3Cl)n2)c1
- AC50 [1]: 13 µM [rising, single point]

SMILES: CC1CN(CC(=O)c2c(N)n(Cc3ccccc3)c(=O)n(C)c2=O)CC(C)O1 (configuration not stated)
- AC50 [1]: 29.1 µM [rising, single point]

SMILES: COc1ccc2nc(NC(=O)Nc3cccc4ccccc34)sc2c1
- AC50 [1]: 2.82 µM [falling, full curve, poor fit]

SMILES: N#CCCCc1cc2cc(F)ccc2cn1
- AC50 [1]: 20.6 µM [rising, single point]

SMILES: CCOC(=O)C1CCN(C(=O)c2oc3ccc(S(=O)(=O)N4CC(C)CC(C)C4)cc3c2C)CC1 (configuration not stated)
- AC50 [1]: 18.4 µM [falling, single point]

SMILES: O=C(N/N=C/c1ccc(Cl)cc1)c1n[nH]c2c1CCCC2
- AC50 [1]: 3.55 µM [rising, partial curve, poor fit]
- AC50 [2]: 3.16 µM [falling, full curve]

SMILES: COc1ccc(C23CC4CC(CC(C(=O)O)(C4)C2)C3)c(F)c1
- AC50 [1]: 10 µM [rising, partial curve]

SMILES: CC(=O)c1ccc(N2CCN(C(=O)c3ccc(Cn4c(=O)[nH]c5ccccc5c4=O)cc3)CC2)cc1
- AC50 [1]: 3.98 µM [rising, partial curve, poor fit]

SMILES: COc1ccc(-c2cc(C(=O)N3CCN(c4ccccc4OC)CC3)no2)cc1
- AC50 [1]: 12.6 µM [falling, single point]

SMILES: CC(C)CC(NC(=O)C1CCC(C)CC1)C(=O)NCc1ccccn1 (configuration not stated)
- AC50 [1]: 3.66 µM [rising, single point]

SMILES: COc1ccc(C(CNC(=O)c2cc(=O)[nH]c3ccccc23)N2CCCC2)cc1 (configuration not stated)
- AC50 [1]: 12.6 µM [rising, single point]

SMILES: COc1ccccc1Sc1nc(-c2ccccn2)ncc1OC
- AC50 [1]: 22.4 µM [falling, single point]

SMILES: O=C(/C=C/c1ccc(F)cc1)NC(=S)N1CCN(c2ccccn2)CC1
- AC50 [1]: 12.6 µM [falling, partial curve, poor fit]

SMILES: COc1ccc(NC(=O)COc2ccccc2)cc1NC(=O)c1ccco1
- AC50 [1]: 22.4 µM [falling, single point]

SMILES: Cc1ccccc1C(=O)NNC(=S)Nc1cccc(C(F)(F)F)c1
- AC50 [1]: 20.6 µM [falling, partial curve, poor fit]

SMILES: COC(=O)c1cccc(NC(=O)CCc2ccccc2)c1
- AC50 [1]: 11.6 µM [falling, partial curve]

SMILES: N#Cc1ccsc1NC(=O)CSc1nnnn1-c1ccc(O)cc1
- AC50 [1]: 7.08 µM [falling, full curve]

SMILES: Cn1c(=O)c2c(ncn2CC(=O)N2CCc3ccccc3C2)n(C)c1=O
- AC50 [1]: 0.631 µM [falling, partial curve, poor fit]

SMILES: COc1ccc(-c2nnc(-c3ccc(N)cc3)o2)cc1
- AC50 [1]: 0.0058 µM [falling, full curve, poor fit]
